In publication PMC3135607:
These are yes or no findings as the source states them, for the method shown. In cells and extracts the contact can be indirect. Some binding calls cover weakened binding; strength is not graded here.

Chains of the proteins cited; added tags and fusions are not shown.
UniProt P13569: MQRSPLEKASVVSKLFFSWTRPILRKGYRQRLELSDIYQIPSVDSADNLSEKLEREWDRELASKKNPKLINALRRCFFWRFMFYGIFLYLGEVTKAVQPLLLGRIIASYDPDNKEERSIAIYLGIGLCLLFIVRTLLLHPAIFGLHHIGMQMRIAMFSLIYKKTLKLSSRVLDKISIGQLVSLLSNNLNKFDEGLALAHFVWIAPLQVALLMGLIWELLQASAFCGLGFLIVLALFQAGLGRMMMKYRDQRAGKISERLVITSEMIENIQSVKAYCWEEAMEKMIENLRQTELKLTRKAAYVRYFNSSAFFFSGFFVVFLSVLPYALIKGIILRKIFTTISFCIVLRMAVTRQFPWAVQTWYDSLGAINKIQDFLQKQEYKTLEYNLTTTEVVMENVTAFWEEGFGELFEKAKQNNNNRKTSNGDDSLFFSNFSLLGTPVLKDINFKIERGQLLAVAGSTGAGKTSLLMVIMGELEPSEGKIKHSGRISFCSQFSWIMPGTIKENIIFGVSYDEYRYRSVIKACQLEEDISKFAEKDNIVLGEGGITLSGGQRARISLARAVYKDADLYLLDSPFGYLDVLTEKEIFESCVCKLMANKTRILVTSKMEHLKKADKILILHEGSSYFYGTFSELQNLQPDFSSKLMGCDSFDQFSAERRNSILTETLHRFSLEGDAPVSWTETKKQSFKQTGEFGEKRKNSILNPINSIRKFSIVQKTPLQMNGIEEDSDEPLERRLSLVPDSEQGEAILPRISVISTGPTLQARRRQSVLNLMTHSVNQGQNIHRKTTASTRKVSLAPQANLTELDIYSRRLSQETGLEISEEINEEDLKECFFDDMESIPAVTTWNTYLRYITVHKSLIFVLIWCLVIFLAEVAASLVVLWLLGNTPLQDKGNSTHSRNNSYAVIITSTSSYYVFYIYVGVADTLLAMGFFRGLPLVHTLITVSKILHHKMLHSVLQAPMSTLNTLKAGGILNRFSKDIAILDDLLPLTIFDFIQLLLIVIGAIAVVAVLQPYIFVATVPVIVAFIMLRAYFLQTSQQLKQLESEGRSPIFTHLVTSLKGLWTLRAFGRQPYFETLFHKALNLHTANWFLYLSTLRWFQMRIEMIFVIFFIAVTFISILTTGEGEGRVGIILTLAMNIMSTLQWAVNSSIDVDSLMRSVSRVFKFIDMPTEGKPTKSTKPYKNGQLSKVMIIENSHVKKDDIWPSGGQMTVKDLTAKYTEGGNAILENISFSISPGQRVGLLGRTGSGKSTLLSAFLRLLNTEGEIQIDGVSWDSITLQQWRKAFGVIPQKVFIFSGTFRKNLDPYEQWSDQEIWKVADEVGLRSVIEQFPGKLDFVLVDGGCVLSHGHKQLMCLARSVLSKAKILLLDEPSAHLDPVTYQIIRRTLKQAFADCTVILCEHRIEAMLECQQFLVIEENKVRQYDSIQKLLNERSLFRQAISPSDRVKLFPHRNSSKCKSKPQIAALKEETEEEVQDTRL
UniProt Q14289: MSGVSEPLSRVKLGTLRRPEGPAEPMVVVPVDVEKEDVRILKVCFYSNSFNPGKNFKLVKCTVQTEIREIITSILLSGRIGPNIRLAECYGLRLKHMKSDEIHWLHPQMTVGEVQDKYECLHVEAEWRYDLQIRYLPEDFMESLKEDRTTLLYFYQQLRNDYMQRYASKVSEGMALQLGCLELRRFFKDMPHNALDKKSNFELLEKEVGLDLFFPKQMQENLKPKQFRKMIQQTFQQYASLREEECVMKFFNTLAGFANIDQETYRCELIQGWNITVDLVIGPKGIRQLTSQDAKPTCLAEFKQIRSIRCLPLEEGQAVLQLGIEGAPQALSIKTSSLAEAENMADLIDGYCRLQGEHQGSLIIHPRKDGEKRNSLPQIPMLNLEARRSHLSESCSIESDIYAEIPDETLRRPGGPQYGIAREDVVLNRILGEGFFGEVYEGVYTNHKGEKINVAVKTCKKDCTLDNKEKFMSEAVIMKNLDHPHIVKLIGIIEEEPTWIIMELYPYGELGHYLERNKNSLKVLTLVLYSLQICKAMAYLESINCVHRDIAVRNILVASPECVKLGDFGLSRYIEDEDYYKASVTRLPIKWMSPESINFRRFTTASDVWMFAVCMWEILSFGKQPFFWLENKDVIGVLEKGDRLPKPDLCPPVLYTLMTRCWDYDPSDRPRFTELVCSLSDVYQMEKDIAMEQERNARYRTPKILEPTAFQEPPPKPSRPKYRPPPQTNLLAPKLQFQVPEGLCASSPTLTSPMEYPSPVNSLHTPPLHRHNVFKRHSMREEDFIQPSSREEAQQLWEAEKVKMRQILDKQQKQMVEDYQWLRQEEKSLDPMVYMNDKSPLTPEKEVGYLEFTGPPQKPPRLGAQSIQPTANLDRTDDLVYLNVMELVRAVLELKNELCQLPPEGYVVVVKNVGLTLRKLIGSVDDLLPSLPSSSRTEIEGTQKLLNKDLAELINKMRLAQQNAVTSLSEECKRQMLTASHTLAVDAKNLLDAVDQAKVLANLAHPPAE

Columns and labels:
[1] = biological target: Cystic Fibrosis Transmembrane Conductance Regulator (CFTR), endogenous wild type (human (endogenous in Calu-3)) (UniProt P13569); assay: co-IP; lysates of IB3-1 cells transiently transfected with wt-CFTR and of Calu-3 cells (endogenous CFTR); immunoprecipitated with CFTR antibody and protein A/G beads, 4°C overnight; immunoblotted with PYK2 antibody
[2] = biological target: wt-CFTR-GFP (Cystic Fibrosis Transmembrane Conductance Regulator, wild type, GFP-tagged) (human) (UniProt P13569); assay: as above
[3] = biological target: T1, Crk-associated substrate (p130cas) (human (endogenous in IB3-1)) (UniProt P56945); assay: co-IP; IB3-1 cell lysate, endogenous proteins; protein A/G beads with antibody, 4°C overnight, washed three times with lysis buffer, immunoblot; which of the two was precipitated is not told
T1 sequence: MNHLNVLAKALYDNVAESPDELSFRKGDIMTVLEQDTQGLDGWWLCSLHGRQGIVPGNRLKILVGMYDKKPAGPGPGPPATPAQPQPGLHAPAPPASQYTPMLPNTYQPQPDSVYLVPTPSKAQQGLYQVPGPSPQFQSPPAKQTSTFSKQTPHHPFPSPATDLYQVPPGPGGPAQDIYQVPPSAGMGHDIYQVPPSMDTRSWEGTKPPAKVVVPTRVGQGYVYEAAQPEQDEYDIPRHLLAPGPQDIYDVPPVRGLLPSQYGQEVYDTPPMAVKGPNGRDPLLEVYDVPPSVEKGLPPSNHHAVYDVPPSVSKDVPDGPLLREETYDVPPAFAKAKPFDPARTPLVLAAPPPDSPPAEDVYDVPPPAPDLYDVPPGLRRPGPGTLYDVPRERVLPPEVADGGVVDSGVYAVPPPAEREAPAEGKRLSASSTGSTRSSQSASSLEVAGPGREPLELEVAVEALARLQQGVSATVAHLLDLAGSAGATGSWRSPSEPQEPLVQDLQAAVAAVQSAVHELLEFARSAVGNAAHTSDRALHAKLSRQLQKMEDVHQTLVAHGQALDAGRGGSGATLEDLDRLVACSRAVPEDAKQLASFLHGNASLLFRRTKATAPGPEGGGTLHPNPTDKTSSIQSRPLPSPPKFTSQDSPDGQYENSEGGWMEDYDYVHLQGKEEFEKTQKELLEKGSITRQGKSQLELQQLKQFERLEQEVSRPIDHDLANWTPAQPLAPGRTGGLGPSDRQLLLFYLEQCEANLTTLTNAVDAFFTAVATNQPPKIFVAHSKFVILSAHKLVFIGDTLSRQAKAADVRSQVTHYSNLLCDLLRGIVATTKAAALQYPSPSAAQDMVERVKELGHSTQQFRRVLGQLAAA

Measured: binding

Proline-rich tyrosine kinase 2 (PYK2) (from UniProt Q14289 1-1009)
binds: [1] | [2] | [3]
